Measured values as given in PubChem BioAssay AID493014 (National Center for Advancing Translational Sciences (NCATS), 2011).
This is one part of the list. The main result of the screen is listed elsewhere. These columns were measured beside it and carry no call. Most of these compounds were active or inconclusive in the main read-out, so they are no random draw. Potencies come from curve fits of mixed quality, noted in brackets.

Assay: qHTS Assay to Find Inhibitors of Chronic Active B-Cell Receptor Signaling
Details: ABC-DLBCL IkBa-CBG/CBR reporter, luminescence ratio (green luciferase fused to IkBa over red control in TMD8 lymphoma cells), 4 h
Outline: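 Concentration-response series (up to 46 uM) were applied to TMD8 dual-reporter cells for 4 h at 37C with doxycycline. Green/red ratio, after filter-overlap correction, defined %Activity; red signal alone was normalised to basal cells and zero luminescence.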

[1] = measured here: CBR red luminescence, cell number
[2] = measured here: IkBa-CBG green luminescence

| Compound | AC50 [1] | AC50 [2] |
| --- | --- | --- |
| Nc1nc(SCC(=O)NCCC(c2ccccc2)c2ccccc2)n[nH]1 | 16.4 µM [rising, partial curve, poor fit] | – |
| Cc1ccc(NC(=O)C(c2ccccc2)N2CCN(CC(=O)N3CCOCC3)CC2)cc1 (stereo not drawn) | 0.731 µM [rising, full curve, poor fit] | – |
| Nc1ccc(-c2nc3ncccc3o2)c(Cl)c1 | 7.08 µM [falling, partial curve, poor fit] | – |
| COc1ccc(OC)c(-n2nnnc2SCC(=O)O)c1 | 29.1 µM [rising, single point] | – |
| Cc1ccc(Cn2nc(C)c(NC(=O)CCCn3nc([N+](=O)[O-])c(Cl)c3C)c2C)cc1 | 0.103 µM [falling, full curve, poor fit] | – |
| O=C(Nc1nc(-c2ccccn2)cs1)c1ccc(Br)s1 | 0.0461 µM [rising, full curve, poor fit] | – |
| CC1(C(=O)O)CC(C)(C(=O)O)CC(C)(C(=O)O)C1 (stereo not drawn) | 5.8 µM [rising, full curve, poor fit] | – |
| CN(CC(=O)Nc1ccc(F)cc1)C(=O)c1ccc2ccccc2n1 | 0.731 µM [rising, full curve, poor fit] | – |
| O=C(Nc1ccc(Nc2ccccc2)cc1)C(Cl)(Cl)Cl | 1.84 µM [rising, partial curve] | – |
| CCNC1=C(Cl)C(=O)c2ccccc2C1=O | 20 µM [falling, partial curve] | – |
| Cc1ccc(-c2ccc(=O)n(CCC(=O)NCc3ccccn3)n2)cc1 | 1.03 µM [falling, full curve, poor fit] | – |
| O=C(NC1CCCCC1)C(c1ccco1)N(C(=O)c1csnn1)c1cccc(Cl)c1 (stereo not drawn) | 10 µM [falling, partial curve] | – |
| Cc1nc(SCC(=O)Nc2nc3ccccc3s2)n[nH]1 | 35.5 µM [falling, single point] | – |
| Cc1cc(C(C)(C)C)ccc1OCCCCN1CCCC1 | 29.1 µM [falling, single point] | – |
| Cc1cc(C)c2nc(N3C(=O)C(O)=C(C(=O)c4ccco4)C3c3ccc(O)cc3)sc2c1 (stereo not drawn) | 7.31 µM [falling, partial curve, poor fit] | – |
| CCn1c(SCc2ccc(C(=O)Nc3nccs3)cc2)nnc1-c1ccc(N)cc1 | 29.1 µM [falling, single point] | 4.61 µM [rising, partial curve, poor fit] |
| O=c1[nH]c(SCc2ccc(Cl)cc2)nc2ccsc12 | 10 µM [falling, partial curve, poor fit] | – |
| COc1ccc(OC)c(-c2csc(NC(=O)COC(=O)C3(C)CC3(Cl)Cl)n2)c1 (stereo not drawn) | 29.1 µM [falling, single point] | – |
| COc1c(O)ccc2c1CN1CCc3cc4c(cc3C1C2)OCO4 (stereo not drawn) | 22.4 µM [falling, single point] | – |
| CN(C)/C=C/C(=O)c1cnc(-c2ccc(Cl)cc2)s1 | 17.8 µM [falling, single point] | – |
| COC(=O)c1ccccc1NC1c2ccccc2C(=O)N1c1cccnc1 (stereo not drawn) | 20.6 µM [falling, single point] | – |
| COc1cccc2[nH]c(C(=O)NN)c(N)c12 | 7.08 µM [falling, partial curve, poor fit] | – |

| Compound | AC50 [1] | AC50 [2] |
| --- | --- | --- |
| COCCNC(=S)N/N=C(\C)c1cccc(C(F)(F)F)c1 | 35.5 µM [falling, single point] | 25.1 µM [falling, single point] |
| Nc1nc2c(ncn2C2C[C@H](O)[C@@H](CO)O2)c(=O)[nH]1 (stereo partly drawn) | 20.6 µM [rising, partial curve, poor fit] | – |
| CCCc1nn(C)c(C(=O)Nc2ccc(Cl)cc2)c1Cl | 10.3 µM [rising, partial curve] | – |
| O=C1CSc2ccc(C(=O)NCCc3ccc(Cl)cc3Cl)cc2N1 | 14.6 µM [falling, partial curve, poor fit] | – |
| CC(C)C(=O)Nc1ccc(Oc2ccc3c(c2)C(=O)NC3=O)cc1 | 2.82 µM [rising, full curve, poor fit] | – |
| O=C(Cn1cnc2cc([N+](=O)[O-])ccc2c1=O)Nc1ccc(Br)cc1 | 35.5 µM [falling, single point] | – |
| Clc1nc2c(-c3ccccc3)nnn2c2ccccc12 | 0.0794 µM [falling, full curve, poor fit] | – |
| CN(CC(O)COCc1ccccc1F)C1CCCCC1 (stereo not drawn) | 10 µM [rising, partial curve] | – |
| O=C(COc1ccc(Cl)cc1)NCc1nnc(SCC(=O)N2CCCc3ccccc32)o1 | 23.1 µM [rising, single point] | – |
| COc1ccc(C(=O)Nc2ccc(C3CC3(Cl)Cl)cc2)cc1 (stereo not drawn) | 35.5 µM [rising, single point] | – |
| O=C(CSc1nc2ccccc2s1)N/N=C/c1ccc(C(=O)O)cc1 | 1.26 µM [falling, full curve] | – |
| CCn1c(SCC(=O)Nc2cccc(OC)c2)nc2ccccc2c1=O | 0.501 µM [falling, full curve] | – |
| COc1ccc(CCNc2nc(SCc3ccc(F)cc3)nc3ccccc23)cc1OC | 10 µM [falling, partial curve, poor fit] | – |
| CCc1nn(CC(=O)N2CCN(c3cc(C)ccc3C)CC2)c(=O)c2cc3occc3n12 | 5.62 µM [rising, single point] | – |
| COc1ccc(CCNS(=O)(=O)c2ccc(Br)cc2)cc1 | 0.631 µM [rising, full curve] | – |
| Cc1cc(=O)[nH]c2nnc(SCC(=O)Nc3ccc(F)cc3F)n12 | 3.16 µM [falling, single point] | – |
| Cc1cc(Nc2cccc(C(=O)O)c2)n2ncnc2n1 | 11.2 µM [falling, partial curve] | – |
| N#Cc1c2n(c(=S)n(-c3ccc(F)cc3)c1=O)CCCCC2 | 0.891 µM [falling, full curve] | – |
| Cc1[nH]nc2c1C(c1ccsc1C)C(C#N)=C(N)O2 (stereo not drawn) | 16.4 µM [falling, single point] | – |
| Cn1c(/C=N/NC(=O)c2ccccc2Br)nc2ccccc21 | 15.8 µM [falling, partial curve, poor fit] | – |
| CCOC(=O)COc1cccc2c(=O)n(CC(=O)NCc3ccccc3)ccc12 | 8.91 µM [rising, partial curve] | 10 µM [falling, partial curve] |
| CCCSc1ccc(C(=O)Nc2ccc(Cl)cc2)cn1 | 3.98 µM [falling, partial curve, poor fit] | – |

| Compound | AC50 [1] | AC50 [2] |
| --- | --- | --- |
| CC(C)NC(=O)CC(=O)N/N=C/c1ccccc1F | 5.01 µM [rising, single point] | – |
| COc1ccc(NC(=O)Nc2ccc(Br)cn2)cc1 | 1.58 µM [rising, full curve, poor fit] | – |
| O=C1N/C(=C/c2cccn2-c2ccc(F)cc2)C(=O)N1Cc1ccccc1 | 16.4 µM [rising, partial curve, poor fit] | – |
| Cc1cccc(C)c1OCC(=O)N1CC2(C)CC1CC(C)(C)C2 (stereo not drawn) | 23.1 µM [rising, single point] | – |
| CN(C)c1ccc(NC(=O)CSc2nc3ccccc3c(=O)n2C2CCCCC2)cc1 | 6.31 µM [rising, single point] | – |
| CCN1CCCC1CNC(=O)c1cc2c(=O)n(C)c3ccccc3c2n1C (stereo not drawn) | 0.146 µM [falling, full curve, poor fit] | – |
| Cc1sc(NC(=O)C2CCCC2)c(C#N)c1C | 20.6 µM [rising, single point] | – |
| Cc1cc(C(=O)Nc2ccccc2C(=O)O)ccc1NC(=O)COc1cccc([N+](=O)[O-])c1 | 0.891 µM [falling, full curve, poor fit] | – |
| Cn1c(-c2sccc2OCc2ccc(Cl)cc2Cl)n[nH]c1=S | 35.5 µM [falling, single point] | – |
| CCN(CC)c1ccc(/C=N/n2c(C)nc3ccccc3c2=O)cc1 | 25.1 µM [falling, single point] | – |
| CCOc1ccccc1N(CC(=O)NC1CCCCC1)C(=O)CCCC(=O)Nc1ccccn1 | 12.6 µM [falling, partial curve] | – |
| Cc1ccc(C(=O)NCC(=O)OCC(=O)c2ccccc2)s1 | 1.3 µM [rising, full curve, poor fit] | – |
| CC(=O)c1sc(NC(=O)CSC(C)C(=O)Nc2cc(C)on2)nc1-c1ccccc1 (stereo not drawn) | 29.1 µM [falling, single point] | – |
| CC1C(=O)C(C)C(c2cc(Cl)ccc2O)NC1c1cc(Cl)ccc1O (stereo not drawn) | 35.5 µM [falling, partial curve, poor fit] | – |
| C[C@H](/C=C/[C@@]1(O)[C@H](C)C[C@H](O)CC1(C)C)O[C@@H]1O[C@H](CO)[C@@H](O)[C@H](O)[C@H]1O | 29.1 µM [falling, partial curve, poor fit] | – |
| Cc1ccc(NC(=O)CCNC(=O)c2ccccc2Cl)cc1S(=O)(=O)N1CCOCC1 | 20.6 µM [rising, partial curve] | – |
| Cc1cccn2c(=O)c3cc(C#N)c(=NC(=O)c4cccs4)n(CC(C)C)c3nc12 | 3.98 µM [falling, single point] | – |
| COc1ccc(-c2cc(C(F)(F)F)n3nc(C(=O)NCCCn4ccnc4)cc3n2)cc1 | 14.6 µM [rising, partial curve] | 18.4 µM [falling, partial curve] |
| COc1ccc(CCN=Cc2ccccc2O)cc1OC | 0.282 µM [rising, full curve, poor fit] | – |
| Nc1ccc(C(=O)N/N=C/c2cn(Cc3ccc(F)cc3)c3ccccc23)cc1 | 5.62 µM [falling, full curve] | – |

Copied from above for reference:

| Compound | AC50 [1] | AC50 [2] |
| --- | --- | --- |
| CC1C(=O)C(C)C(c2cc(Cl)ccc2O)NC1c1cc(Cl)ccc1O (stereo not drawn) | 35.5 µM [falling, partial curve, poor fit] | – |
| C[C@H](/C=C/[C@@]1(O)[C@H](C)C[C@H](O)CC1(C)C)O[C@@H]1O[C@H](CO)[C@@H](O)[C@H](O)[C@H]1O | 29.1 µM [falling, partial curve, poor fit] | – |
| Cc1ccc(NC(=O)CCNC(=O)c2ccccc2Cl)cc1S(=O)(=O)N1CCOCC1 | 20.6 µM [rising, partial curve] | – |
| Cc1cccn2c(=O)c3cc(C#N)c(=NC(=O)c4cccs4)n(CC(C)C)c3nc12 | 3.98 µM [falling, single point] | – |
